# Primary screen of a compound library

Data taken from ChEMBL document CHEMBL3988442, “University of Dundee, Small-Polar-MMV Screening Library” (2021).

T. brucei: 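Whole-parasite assay of Trypanosoma brucei over 72 hours; the read-out is not stated. Concentration: 30 µM. Higher reads as stronger inhibition (inferred: compounds with an IC50 in retests scored well above the rest). Values scatter widely below zero; nearly all retest evidence comes from the higher of the two concentrations used. Of about 64,000 compounds tested this way, about 940 (1.5%) reached 50% or more in at least one test.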
Leishmania in macrophages: 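Cell assay of Leishmania donovani living inside macrophages; the read-out is not stated. Tested at 30 µM. Direction is inferred from retests: higher values go with stronger inhibition. Of about 69,000 compounds tested this way, about 1,000 (1.5%) reached 50% or more in at least one test.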

Values are the deposited “Percent Effect”, in %.
The controls that fix the scale are not given in the record; negative values are as filed.
This is an unselected part of the compounds tested.
Two or more numbers in one place are separate tests of the same structure; such repeats can differ widely.

SMILES: Cc1cccc(CS(=O)(=O)NCC(O)Cc2ccccc2)c1 (centres undefined)
T. brucei: -55.03
Leishmania in macrophages: -6.408

SMILES: Cl.O=C(C1CCCCC1)N1CC2(CCNCC2)C1
T. brucei: -15.02
Leishmania in macrophages: -8.75

SMILES: CCOC(=O)CN(C)C1CCc2ccccc21 (centres undefined)
T. brucei: -27.58
Leishmania in macrophages: -0.3838

SMILES: [H][C@]12CC[C@]([H])(CN(C(=O)COc3ccc(F)c(Cl)c3)C1)N(CCOC)C2=O
T. brucei: 14.03
Leishmania in macrophages: 29.01

SMILES: O=C(c1nc(Cc2c[nH]c3ccccc23)no1)N1CCCC1
T. brucei: -38.64
Leishmania in macrophages: 0.7175

SMILES: CCCN(C(=O)c1ccccn1)c1nc2c(s1)CCc1c-2cnn1C
T. brucei: 34.41
Leishmania in macrophages: -11.78

SMILES: O=C(NCCn1ccc(-c2ccncc2)n1)c1ccc2c(c1)OCO2
T. brucei: -23.39
Leishmania in macrophages: -16.66 & -45.51

SMILES: COC(=O)C(C)(C)NC(=O)C1CC(=O)N(CC2CC2)C1 (centres undefined)
T. brucei: -49.82
Leishmania in macrophages: 43.18

SMILES: Cn1nc(C(=O)N2CCOCC2)cc1C(=O)Nc1ccc(Cl)cc1Cl
T. brucei: -3.881
Leishmania in macrophages: -5.421

SMILES: O=C(CNc1ccc(OCC2CCOCC2)cc1)NCc1ccco1
T. brucei: -17.79
Leishmania in macrophages: -44.82

SMILES: Cc1cc(CS(=O)(=O)NCC2CCCCC2)on1
T. brucei: -62.79
Leishmania in macrophages: 10.75

SMILES: O=C(O)C(F)(F)F.[H][C@@]12CCN(c3ncc(F)cn3)[C@]1([H])CC[C@H](C(=O)NC1CC1)O2
T. brucei: -28.17
Leishmania in macrophages: 24.85

SMILES: COc1ccc(OC)c(C2CCN(CC(C)(C)N3CCOCC3)C2)c1 (centres undefined)
T. brucei: -36.56
Leishmania in macrophages: 38.01

SMILES: COCc1ccccc1C(=O)N1CCn2c(nnc2C(C)C)C1
T. brucei: -40.58
Leishmania in macrophages: 18.54

SMILES: CC(NC(=O)NCc1ccc(Cl)cc1)c1ccccn1 (centres undefined)
T. brucei: 5.5
Leishmania in macrophages: 33.1

SMILES: CC(Nc1cccc(CN2CCOC2=O)c1)C(=O)Nc1ccccc1F (centres undefined)
T. brucei: -7.936
Leishmania in macrophages: 9.022

SMILES: Cn1cc(-c2csc(N3CCCCCC3)n2)cn1
T. brucei: 99.99
Leishmania in macrophages: 25.09

SMILES: Cc1ncsc1-c1nc(CC2CCN(C)CC2)nn1Cc1ccccc1
T. brucei: -48.6
Leishmania in macrophages: 13.93

SMILES: Cc1ccc(CN(C)C(=O)c2cccc(NC(N)=O)c2)o1
T. brucei: -7.392
Leishmania in macrophages: 18.36

SMILES: CN(C1CCN(C(=O)NCCc2ccc(F)cc2F)CC1)S(C)(=O)=O
T. brucei: -30.22
Leishmania in macrophages: 31.07

SMILES: O=C(O)C(F)(F)F.O=C(O)C(F)(F)F.[H][C@@]12COC[C@]1([H])[C@@H](OCc1csc(C)n1)CN2Cc1cccs1
T. brucei: -16.51
Leishmania in macrophages: 2.027

SMILES: CC(C)c1cc(C(=O)N2CCCC2c2nc(-c3ccccc3)no2)[nH]n1 (centres undefined)
T. brucei: -0.3123
Leishmania in macrophages: 20.24

SMILES: [H][C@]12CCN(C(=O)Nc3cccc(OC)c3)CC[C@@]1([H])S(=O)(=O)N(C)C2
T. brucei: -16.68
Leishmania in macrophages: 24.72

SMILES: CN(C)CC(=O)Nc1ccc(C(=O)N(C)CCc2cn[nH]c2)cc1
T. brucei: -4.189
Leishmania in macrophages: -2.382

SMILES: Cc1nnc2n1CCN(Cc1csc(COc3ccccc3)n1)C2
T. brucei: -8.401
Leishmania in macrophages: 23.22

SMILES: [H][C@@]12CCN(c3cnccn3)C[C@@]1(C(=O)O)CCCN2Cc1ccccn1
T. brucei: -19.93
Leishmania in macrophages: 8.036

SMILES: Cc1nc(CN2CCCC(N(C)c3cnc4ccccc4n3)C2)no1 (centres undefined)
T. brucei: -18.21
Leishmania in macrophages: 7.28

SMILES: [H][C@]12CC[C@](O)(CC1)C(CO)N2Cc1ccc(F)cc1 (some centres undefined)
T. brucei: -3.135
Leishmania in macrophages: 10.54

SMILES: COc1ccnc(N2CCN(C(=O)NCc3ccc(C)s3)CC2)n1
T. brucei: 12.7
Leishmania in macrophages: 13.86

SMILES: Cn1ccnc1CCNS(=O)(=O)c1cccnc1
T. brucei: -7.916
Leishmania in macrophages: 0.4781

SMILES: CCOC1CCN(C(=O)c2c(Cl)c3ccccc3n2C)CC1
T. brucei: -14.49
Leishmania in macrophages: 17.13

SMILES: COCCn1ccc(NC(=O)CNC(=O)CC(C)(C)C)n1
T. brucei: -16.72
Leishmania in macrophages: -14.67

SMILES: Cc1cc(C)cc(OCCC(=O)N2CCCC(n3cncn3)C2)c1 (centres undefined)
T. brucei: 16.7
Leishmania in macrophages: 15.66

SMILES: Cc1c(C(=O)O)oc2ccc(I)cc12
T. brucei: -2.112
Leishmania in macrophages: 48.51

SMILES: COCC(NC(=O)NCc1ccc(C)c(F)c1)c1ccco1 (centres undefined)
T. brucei: -22.92
Leishmania in macrophages: 3.108

SMILES: O=C(c1cnccn1)N1CCN(CC2CC2)c2ncccc2C1
T. brucei: -23.35
Leishmania in macrophages: 33.88

SMILES: Cn1cnnc1C1CCCN(C(=O)COc2ccccc2Cl)C1 (centres undefined)
Leishmania in macrophages: 4.704

SMILES: CC(C)N(C)Cc1cc(=O)n2c(n1)CN(S(=O)(=O)C1CC1)CCC2.O=C(O)C(F)(F)F
T. brucei: -2.26
Leishmania in macrophages: 28.49

SMILES: Cc1cccc(NS(=O)(=O)c2ccc(C#N)nc2)c1C#N
T. brucei: -52.91
Leishmania in macrophages: 36.45

SMILES: CC(C)N(C)[C@@H]1CCN(Cc2ccco2)[C@H]1Cc1ccccc1
T. brucei: -28.85
Leishmania in macrophages: -1.686

SMILES: CCOc1ccc2nc(NC(=O)c3c(C(=O)O)cnn3C)sc2c1
T. brucei: -13.23
Leishmania in macrophages: 4.578

SMILES: CN(C)CC1CSCCCN1S(=O)(=O)Cc1cccc(F)c1 (centres undefined)
T. brucei: 11.93
Leishmania in macrophages: -0.02964 & 16.3

SMILES: CCCN(CC)C(=O)c1nc2c(n1C)CCN(Cc1ccccc1)C2
T. brucei: -14.03
Leishmania in macrophages: 16.25

SMILES: CCCn1c(C)c(CC(=O)N(C)CCOC)c2c1CC(C)(C)CC2=O
T. brucei: -8.77
Leishmania in macrophages: 19.82

SMILES: Cc1cc(CN(C)CCN(C)c2ccccc2)no1
T. brucei: -25.99
Leishmania in macrophages: -11.16

SMILES: CN(C)c1ncccc1CNC(=O)CCNc1ncccn1
T. brucei: -4.46
Leishmania in macrophages: 31.63